Results: paper PMC6197280, “A distinct isoform of ZNF207 controls self-renewal and pluripotency of human embryonic stem cells”
Results are given in words; binding and its absence hold for the method and conditions named. Binding seen in cells or lysates may run through a third protein. Binding calls can cover weak binding; strength is not graded here.

By UniProt entry, the sequences of proteins in these tests, tags left out. Where a name states a change or a piece, a line headed by the entry shows the natural chain unless it says otherwise.
UniProt O43670: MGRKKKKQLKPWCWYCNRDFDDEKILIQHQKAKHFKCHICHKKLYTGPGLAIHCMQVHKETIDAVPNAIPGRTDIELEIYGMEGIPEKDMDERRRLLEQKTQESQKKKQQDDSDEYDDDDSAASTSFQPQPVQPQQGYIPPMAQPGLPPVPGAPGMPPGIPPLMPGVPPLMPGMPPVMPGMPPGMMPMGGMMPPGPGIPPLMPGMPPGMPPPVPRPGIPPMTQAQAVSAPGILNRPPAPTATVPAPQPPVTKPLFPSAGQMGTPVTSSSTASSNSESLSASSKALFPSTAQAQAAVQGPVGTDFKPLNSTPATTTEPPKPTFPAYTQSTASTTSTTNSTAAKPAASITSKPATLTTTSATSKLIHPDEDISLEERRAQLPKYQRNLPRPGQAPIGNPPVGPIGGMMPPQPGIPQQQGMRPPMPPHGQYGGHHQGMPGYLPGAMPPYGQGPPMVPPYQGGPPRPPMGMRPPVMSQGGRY
UniProt P48431: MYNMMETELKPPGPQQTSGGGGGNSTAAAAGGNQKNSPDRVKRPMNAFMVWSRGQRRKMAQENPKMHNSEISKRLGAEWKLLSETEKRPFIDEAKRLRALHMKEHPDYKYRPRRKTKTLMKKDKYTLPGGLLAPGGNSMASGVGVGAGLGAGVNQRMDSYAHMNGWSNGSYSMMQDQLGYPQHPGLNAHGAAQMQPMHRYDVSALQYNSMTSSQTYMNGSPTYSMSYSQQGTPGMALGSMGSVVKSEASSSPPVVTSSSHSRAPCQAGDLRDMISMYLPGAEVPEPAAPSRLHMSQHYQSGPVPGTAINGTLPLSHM
UniProt Q01860: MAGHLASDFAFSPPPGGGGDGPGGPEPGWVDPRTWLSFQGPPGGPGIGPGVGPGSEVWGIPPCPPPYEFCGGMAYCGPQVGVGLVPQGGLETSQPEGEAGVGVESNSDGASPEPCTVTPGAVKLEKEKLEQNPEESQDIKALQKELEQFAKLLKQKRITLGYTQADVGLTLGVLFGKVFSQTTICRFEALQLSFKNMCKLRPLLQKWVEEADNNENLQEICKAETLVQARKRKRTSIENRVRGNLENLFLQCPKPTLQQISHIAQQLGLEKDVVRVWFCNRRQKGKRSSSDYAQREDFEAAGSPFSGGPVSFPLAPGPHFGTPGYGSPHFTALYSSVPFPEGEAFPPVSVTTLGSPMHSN

What was measured:
Assay in all cases: co-IP; hESC cell extracts; beads coated with anti-OCT4, anti-SOX2 or anti-ZNF207 antibody, incubated with precleared whole-cell extracts at 4 °C overnight; lysis and wash buffer 50 mM Tris-HCl pH 8.0, 150 mM NaCl, 1 mM EDTA, 1% NP40, 10% glycerol; Western blot; control IP with IgG
[1] = target: ZNF207 (human (endogenous in hESCs)) (UniProt O43670)
[2] = target: SOX2 (human (endogenous in hESCs)) (UniProt P48431)
[3] = target: OCT4 (human (endogenous in hESCs)) (UniProt Q01860)

binding [1] | binding [2] | binding [3] | Substance
binds | – | – | SOX2 (from UniProt P48431 1-317)
– | binds | binds | ZNF207 (from UniProt O43670-4)
